The supplement of paper PMC12823440, “Inhibitors supercharge kinase turnover through native proteolytic circuits” (Nature, 2025)
Some of the results follow. Hit calls seldom repeat between salt and free forms of one compound.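 In K562 cells expressing nanoluciferase-fused kinases, luminescence was recorded at 4 h intervals between 2 and 18 h, normalized as percent of control with DMSO at 100% and a positive control at 0%. A significant (2 sigma) signal drop marks a time point as decreased. The authors' rule for a hit is not shown and takes in more than the number of time points.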

Chains of the proteins cited; added tags and fusions are not shown. Lines headed by an entry give the natural chain unless they say otherwise; changes in a name come on top.
UniProt P06241, whole entry, looked up: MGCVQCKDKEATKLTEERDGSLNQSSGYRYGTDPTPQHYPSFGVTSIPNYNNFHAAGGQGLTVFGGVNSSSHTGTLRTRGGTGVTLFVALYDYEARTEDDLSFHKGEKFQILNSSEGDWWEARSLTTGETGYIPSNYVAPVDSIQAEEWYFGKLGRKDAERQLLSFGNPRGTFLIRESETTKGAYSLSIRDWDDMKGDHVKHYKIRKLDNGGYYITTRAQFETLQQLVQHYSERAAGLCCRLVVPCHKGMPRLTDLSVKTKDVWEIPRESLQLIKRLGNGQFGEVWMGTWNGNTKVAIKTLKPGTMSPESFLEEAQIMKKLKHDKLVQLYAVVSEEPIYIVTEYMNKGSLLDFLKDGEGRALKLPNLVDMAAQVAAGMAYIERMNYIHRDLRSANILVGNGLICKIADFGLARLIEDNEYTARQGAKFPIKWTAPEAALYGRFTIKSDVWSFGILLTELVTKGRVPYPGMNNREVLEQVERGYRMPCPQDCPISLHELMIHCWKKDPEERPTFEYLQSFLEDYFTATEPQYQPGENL
UniProt P14616: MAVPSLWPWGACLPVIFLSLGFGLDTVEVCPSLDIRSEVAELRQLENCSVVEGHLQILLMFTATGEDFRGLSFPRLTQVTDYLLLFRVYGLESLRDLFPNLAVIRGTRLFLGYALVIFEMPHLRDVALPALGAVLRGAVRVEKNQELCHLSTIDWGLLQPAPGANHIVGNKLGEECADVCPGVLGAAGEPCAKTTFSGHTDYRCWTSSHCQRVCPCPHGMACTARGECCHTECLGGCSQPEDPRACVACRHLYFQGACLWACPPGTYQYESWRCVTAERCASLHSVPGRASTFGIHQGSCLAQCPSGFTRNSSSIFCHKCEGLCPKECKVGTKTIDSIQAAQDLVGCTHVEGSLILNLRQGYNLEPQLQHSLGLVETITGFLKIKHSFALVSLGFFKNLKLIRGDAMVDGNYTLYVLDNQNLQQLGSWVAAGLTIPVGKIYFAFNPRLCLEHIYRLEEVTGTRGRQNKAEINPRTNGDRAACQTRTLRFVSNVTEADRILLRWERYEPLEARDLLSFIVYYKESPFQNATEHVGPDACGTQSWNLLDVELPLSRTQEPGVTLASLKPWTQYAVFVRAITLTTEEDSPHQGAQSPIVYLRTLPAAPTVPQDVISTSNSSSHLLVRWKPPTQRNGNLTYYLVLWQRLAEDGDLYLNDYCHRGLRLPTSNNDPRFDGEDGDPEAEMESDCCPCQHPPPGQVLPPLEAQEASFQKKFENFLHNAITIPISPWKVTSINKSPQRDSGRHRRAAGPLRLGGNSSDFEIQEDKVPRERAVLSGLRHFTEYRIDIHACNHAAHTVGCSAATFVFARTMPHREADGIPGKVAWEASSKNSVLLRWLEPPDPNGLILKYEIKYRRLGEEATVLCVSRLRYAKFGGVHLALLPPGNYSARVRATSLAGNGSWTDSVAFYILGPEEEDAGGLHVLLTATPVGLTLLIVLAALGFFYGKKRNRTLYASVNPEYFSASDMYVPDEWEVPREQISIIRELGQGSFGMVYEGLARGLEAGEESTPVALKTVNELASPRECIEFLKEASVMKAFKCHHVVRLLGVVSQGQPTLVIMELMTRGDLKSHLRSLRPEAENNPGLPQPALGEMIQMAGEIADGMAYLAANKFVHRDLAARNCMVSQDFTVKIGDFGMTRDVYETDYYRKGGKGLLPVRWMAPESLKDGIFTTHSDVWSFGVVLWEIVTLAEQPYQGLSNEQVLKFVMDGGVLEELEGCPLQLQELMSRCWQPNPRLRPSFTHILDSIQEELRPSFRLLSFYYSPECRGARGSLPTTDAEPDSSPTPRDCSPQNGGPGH
UniProt Q9Y616: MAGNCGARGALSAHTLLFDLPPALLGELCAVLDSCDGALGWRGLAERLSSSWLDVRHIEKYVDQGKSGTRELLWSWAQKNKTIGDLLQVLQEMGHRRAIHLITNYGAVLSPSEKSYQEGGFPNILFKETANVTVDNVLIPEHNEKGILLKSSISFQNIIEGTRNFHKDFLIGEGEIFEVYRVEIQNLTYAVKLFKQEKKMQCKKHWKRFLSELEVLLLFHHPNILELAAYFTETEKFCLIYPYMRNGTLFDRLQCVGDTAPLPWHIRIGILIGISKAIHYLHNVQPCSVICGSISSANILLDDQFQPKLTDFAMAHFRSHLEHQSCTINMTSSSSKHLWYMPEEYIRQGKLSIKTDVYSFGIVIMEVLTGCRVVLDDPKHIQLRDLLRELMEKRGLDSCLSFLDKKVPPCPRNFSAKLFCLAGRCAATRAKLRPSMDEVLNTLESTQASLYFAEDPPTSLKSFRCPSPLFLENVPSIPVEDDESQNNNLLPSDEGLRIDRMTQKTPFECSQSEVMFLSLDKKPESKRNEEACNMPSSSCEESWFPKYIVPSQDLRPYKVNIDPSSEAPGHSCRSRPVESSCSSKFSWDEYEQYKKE
UniProt P06239: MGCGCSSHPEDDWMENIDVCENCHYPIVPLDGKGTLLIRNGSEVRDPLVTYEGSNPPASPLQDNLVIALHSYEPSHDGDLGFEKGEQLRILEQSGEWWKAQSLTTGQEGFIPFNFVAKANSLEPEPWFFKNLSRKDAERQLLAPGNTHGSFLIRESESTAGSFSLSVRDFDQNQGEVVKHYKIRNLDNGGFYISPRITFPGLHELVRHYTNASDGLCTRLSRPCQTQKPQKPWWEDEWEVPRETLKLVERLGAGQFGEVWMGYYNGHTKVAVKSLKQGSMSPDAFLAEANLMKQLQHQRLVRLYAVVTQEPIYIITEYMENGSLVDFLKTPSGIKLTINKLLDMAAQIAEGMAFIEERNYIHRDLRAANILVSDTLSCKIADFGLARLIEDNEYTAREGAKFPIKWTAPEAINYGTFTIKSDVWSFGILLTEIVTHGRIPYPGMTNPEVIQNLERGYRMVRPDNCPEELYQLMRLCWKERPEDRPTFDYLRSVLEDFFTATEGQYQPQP
UniProt P07948: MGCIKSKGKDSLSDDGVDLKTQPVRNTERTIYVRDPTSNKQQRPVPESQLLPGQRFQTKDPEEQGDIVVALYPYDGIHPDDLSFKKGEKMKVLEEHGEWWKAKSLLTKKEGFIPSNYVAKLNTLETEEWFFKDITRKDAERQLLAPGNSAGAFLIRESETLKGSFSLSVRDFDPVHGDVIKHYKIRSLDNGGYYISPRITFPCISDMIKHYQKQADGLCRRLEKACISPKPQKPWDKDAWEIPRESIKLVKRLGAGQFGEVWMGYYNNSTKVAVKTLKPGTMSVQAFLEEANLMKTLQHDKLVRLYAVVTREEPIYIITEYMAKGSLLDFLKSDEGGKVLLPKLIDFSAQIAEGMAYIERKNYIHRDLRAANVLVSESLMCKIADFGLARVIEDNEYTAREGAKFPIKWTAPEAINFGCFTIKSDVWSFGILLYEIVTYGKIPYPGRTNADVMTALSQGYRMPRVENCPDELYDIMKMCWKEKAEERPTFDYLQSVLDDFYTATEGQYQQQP
UniProt Q12851: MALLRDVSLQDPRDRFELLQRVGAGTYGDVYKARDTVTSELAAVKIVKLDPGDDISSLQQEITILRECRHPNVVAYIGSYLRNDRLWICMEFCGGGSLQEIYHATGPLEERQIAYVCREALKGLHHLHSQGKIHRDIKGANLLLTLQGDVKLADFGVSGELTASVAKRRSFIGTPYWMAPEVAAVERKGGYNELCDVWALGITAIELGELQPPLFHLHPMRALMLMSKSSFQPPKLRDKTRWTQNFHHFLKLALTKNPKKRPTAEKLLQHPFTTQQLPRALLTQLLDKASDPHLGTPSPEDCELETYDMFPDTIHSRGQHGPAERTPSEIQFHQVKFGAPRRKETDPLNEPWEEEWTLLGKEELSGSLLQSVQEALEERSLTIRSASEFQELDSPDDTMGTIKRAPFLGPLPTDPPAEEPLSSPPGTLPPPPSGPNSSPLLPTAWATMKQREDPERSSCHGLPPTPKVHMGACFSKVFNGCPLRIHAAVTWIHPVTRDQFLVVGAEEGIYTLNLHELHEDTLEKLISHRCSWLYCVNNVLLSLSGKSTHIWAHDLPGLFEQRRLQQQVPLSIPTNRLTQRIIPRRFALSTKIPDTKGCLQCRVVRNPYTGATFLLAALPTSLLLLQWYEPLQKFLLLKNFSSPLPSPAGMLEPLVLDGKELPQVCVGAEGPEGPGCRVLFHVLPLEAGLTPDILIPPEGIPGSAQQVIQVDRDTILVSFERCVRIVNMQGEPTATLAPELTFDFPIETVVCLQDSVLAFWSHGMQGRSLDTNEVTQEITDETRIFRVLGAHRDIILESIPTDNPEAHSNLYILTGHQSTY
UniProt P28482, whole entry: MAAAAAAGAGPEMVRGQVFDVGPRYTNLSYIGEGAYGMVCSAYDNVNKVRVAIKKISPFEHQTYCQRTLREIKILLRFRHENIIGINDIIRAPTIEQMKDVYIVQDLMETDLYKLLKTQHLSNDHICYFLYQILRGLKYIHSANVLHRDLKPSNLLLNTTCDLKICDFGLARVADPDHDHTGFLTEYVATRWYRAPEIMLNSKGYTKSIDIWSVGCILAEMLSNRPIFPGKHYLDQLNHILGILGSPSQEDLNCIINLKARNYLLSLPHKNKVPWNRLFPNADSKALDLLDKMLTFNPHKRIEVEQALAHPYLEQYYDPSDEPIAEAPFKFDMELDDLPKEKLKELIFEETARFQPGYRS
UniProt P31152, whole entry: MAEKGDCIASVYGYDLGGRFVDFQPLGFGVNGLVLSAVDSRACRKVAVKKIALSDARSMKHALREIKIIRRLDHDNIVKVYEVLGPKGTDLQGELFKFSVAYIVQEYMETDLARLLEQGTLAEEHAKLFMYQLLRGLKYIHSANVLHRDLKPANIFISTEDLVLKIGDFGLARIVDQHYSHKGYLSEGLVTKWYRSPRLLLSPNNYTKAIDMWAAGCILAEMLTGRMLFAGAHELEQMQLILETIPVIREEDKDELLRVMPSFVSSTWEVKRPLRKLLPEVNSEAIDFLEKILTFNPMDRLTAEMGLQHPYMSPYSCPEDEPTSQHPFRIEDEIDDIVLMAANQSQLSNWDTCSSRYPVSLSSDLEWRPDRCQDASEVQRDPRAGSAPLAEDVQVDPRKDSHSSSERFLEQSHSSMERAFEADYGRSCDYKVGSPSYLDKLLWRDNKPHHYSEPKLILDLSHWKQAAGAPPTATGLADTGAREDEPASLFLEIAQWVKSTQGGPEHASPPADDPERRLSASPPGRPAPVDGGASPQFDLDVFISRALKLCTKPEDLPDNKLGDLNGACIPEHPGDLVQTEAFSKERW
UniProt P49137, whole entry, looked up: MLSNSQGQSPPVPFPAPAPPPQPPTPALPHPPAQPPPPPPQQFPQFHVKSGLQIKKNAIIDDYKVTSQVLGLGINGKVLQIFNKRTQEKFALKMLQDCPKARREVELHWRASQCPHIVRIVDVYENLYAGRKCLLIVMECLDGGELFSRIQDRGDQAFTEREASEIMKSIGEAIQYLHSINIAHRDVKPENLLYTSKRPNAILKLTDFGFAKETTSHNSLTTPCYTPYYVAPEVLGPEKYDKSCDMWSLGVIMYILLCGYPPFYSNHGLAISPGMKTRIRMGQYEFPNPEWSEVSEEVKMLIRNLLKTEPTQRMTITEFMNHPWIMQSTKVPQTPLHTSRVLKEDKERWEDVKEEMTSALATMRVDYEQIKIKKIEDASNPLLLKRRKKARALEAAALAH
UniProt Q16620, whole entry, looked up: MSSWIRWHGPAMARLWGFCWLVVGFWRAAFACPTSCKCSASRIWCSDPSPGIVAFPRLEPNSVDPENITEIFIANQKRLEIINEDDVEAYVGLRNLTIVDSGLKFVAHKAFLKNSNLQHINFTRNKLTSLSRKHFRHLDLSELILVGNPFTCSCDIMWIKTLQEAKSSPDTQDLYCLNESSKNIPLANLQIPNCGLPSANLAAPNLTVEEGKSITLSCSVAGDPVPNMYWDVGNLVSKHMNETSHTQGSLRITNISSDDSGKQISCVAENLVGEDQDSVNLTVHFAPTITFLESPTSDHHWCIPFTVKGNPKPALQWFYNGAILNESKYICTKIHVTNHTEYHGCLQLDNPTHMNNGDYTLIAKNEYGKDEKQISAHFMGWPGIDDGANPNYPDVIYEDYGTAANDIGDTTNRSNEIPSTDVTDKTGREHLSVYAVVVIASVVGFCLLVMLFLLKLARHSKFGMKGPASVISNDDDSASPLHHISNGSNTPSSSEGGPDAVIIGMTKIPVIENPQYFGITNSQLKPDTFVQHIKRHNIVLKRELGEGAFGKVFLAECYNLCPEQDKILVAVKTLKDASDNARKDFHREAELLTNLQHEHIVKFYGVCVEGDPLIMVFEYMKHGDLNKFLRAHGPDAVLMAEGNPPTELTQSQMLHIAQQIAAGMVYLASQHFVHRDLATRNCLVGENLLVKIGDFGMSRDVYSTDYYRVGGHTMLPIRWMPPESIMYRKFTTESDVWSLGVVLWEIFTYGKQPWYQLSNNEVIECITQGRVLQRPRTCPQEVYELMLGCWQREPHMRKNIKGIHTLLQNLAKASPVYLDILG

What was measured:
Assay in all cases: number of time points (of 5) at which kinase-Nluc abundance scored as decreased, DMSO-normalised (count); higher = more persistent destabilization
Settings in all cases: K562; 2-18 h
[1] = molecular target: FLT3 (UniProt P36888)
[2] = molecular target: FYN (UniProt P06241)
[3] = molecular target: GSK3A (UniProt P49840)
[4] = molecular target: HER2 (UniProt P04626)
[5] = molecular target: INSRR (UniProt P14616)
[6] = molecular target: IRAK3 (UniProt Q9Y616)
[7] = molecular target: JAK1 (UniProt P23458)
[8] = molecular target: LCK (UniProt P06239)
[9] = molecular target: LIMK1 (UniProt P53667)
[10] = molecular target: LIMK2 (UniProt P53671)
[11] = molecular target: LMTK2 (UniProt Q8IWU2)
[12] = molecular target: LYN (UniProt P07948)
[13] = molecular target: MAP2K1 (UniProt Q02750)
[14] = molecular target: MAP2K2 (UniProt P36507)
[15] = molecular target: MAP4K2 (UniProt Q12851)
[16] = molecular target: MAPK1 (UniProt P28482)
[17] = molecular target: MAPK4 (UniProt P31152)
[18] = molecular target: MAPKAPK2 (UniProt P49137)
[19] = molecular target: MKNK1 (UniProt Q9BUB5)
[20] = molecular target: NTRK2 (UniProt Q16620)

Measured: number of time points

O=C(Nc1ccc(F)cc1F)C(NC(=S)Nc1cc(C(F)(F)F)cc(C(F)(F)F)c1)c1ccccc1 (racemic) (2.5 µM)
0: all assays above

O=C(C#Cc1ccccc1)c1cccc([N+](=O)[O-])c1 (10 µM)
0: all assays above

Cc1ncc(-c2cc(F)c(O)c(F)c2)cc1-c1cc(F)c(O)c(F)c1 (10 µM)
0: all assays above

Cc1nc(Nc2cnn(C3CCNCC3)c2)nc2c1N(C)C(=O)c1cc3ccccc3cc1N2C (2.5 µM)
0: all assays above

O=[N+]([O-])c1ccc(-c2nc(-c3ccc(F)cc3)c(-c3ccncc3)[nH]2)cc1 (10 µM)
0: all assays above

Nc1nc(Nc2ccc3c(c2)CC[C@@H](N2CCCC2)CC3)nn1-c1cc2c(nn1)-c1ccccc1CCC2 [Bemcentinib] (2.5 µM)
0: all assays above

CN(C)c1ccc(/C=C2\C(=O)Nc3ccccc32)c2ccccc12 (10 µM)
1: [12]
2: [3]
0: all other assays above

CNCc1cc(Oc2ccc3c(ccn3C(=O)Nc3cc(C(F)(F)F)n(C)n3)c2)ncn1 [Acrizanib] (10 µM)
0: all assays above

CO/N=C1/C(c2c(O)[nH]c3cc(Cl)c(Cl)cc23)=Nc2ccccc21 (10 µM)
0: all assays above

Nc1ccc(C(=O)Nc2cccc(-c3nc(N4CCOCC4)c4oc5ncccc5c4n3)c2)cn1 (10 µM)
3: [1]
5: [19]
0: all other assays above

Cc1n[nH]c2ncc(C(=O)N3CCC[C@H]3c3ccc(Cl)cc3)cc12 (10 µM)
0: all assays above

CN(C)c1cc[n+](Cc2ccc(OCCOc3ccc(C[n+]4ccc(N(C)C)cc4)cc3)cc2)cc1 (10 µM)
0: all assays above

Cn1c(N2CCO[C@@H](c3ccc(F)cc3)C2)nc(-c2ccncn2)cc1=O (10 µM)
0: all assays above

CC1=CC(=O)C(C(C)C)=C/C1=N/OC(=O)c1ccccc1C [Poloxin] (2.5 µM)
0: all assays above

S=C(NCc1ccc2c(c1)OCO2)N1CCN(c2ncnc3c2oc2ccccc23)CC1 [Amuvatinib] (2.5 µM)
0: all assays above

Cc1ccc(Nc2cc(N[C@@H]3CCCC[C@@H]3N)nnc2C(N)=O)nc1C (2 µM)
0: all assays above

Cc1cc2c(F)c(Oc3ncnn4cc(OC[C@@H](C)OC(=O)[C@H](C)N)c(C)c34)ccc2[nH]1 [Brivanib (alaninate)] (10 µM)
0: all assays above

O=c1c(O)c(-c2ccc(O)c(O)c2)oc2cc(O)c(O)c(O)c12 [Quercetagetin] (10 µM)
0: all assays above

COc1c(Nc2ncc(Cl)c(N[C@H]3[C@@H](C(N)=O)[C@@H]4C=C[C@H]3C4)n2)ccc2c1CC[C@@H](N1CCOCC1)CC2 (10 µM)
0: all assays above

NCCNS(=O)(=O)c1ccc(Cl)c2ccncc12 [CKI-7 (free base)] (10 µM)
0: all assays above

Cc1nc2c(NCc3cccc(S(C)(=O)=O)c3)nccn2c1-c1ccc(O)c(F)c1 (10 µM)
0: all assays above

NC(=O)c1sc2c([N+](=O)[O-])cc(C(F)(F)F)cc2[n+]1[O-] [Cyclapolin 9] (10 µM)
0: all assays above

CN1CCC(Nc2ccc(C(=O)Nc3cc(-c4ccc5c(c4)OCO5)[nH]n3)cc2)CC1 (10 µM)
3: [9]
4: [2] | [7]
0: all other assays above

CC(C)n1cnc2c(Nc3cccc(Cl)c3)nc(N[C@H]3CCCC[C@@H]3N)nc21 (2.5 µM)
0: all assays above

CC(C)c1cc2c(c(O)c1O)[C@@]13CCCC(C)(C)[C@@H]1C[C@@H]2OC3=O [Carnosol] (2.5 µM)
0: all assays above

CN(C[C@@H]1COCCO1)S(=O)(=O)Nc1ccc2ccc3ncc(-c4cnn(C)c4)cc3c(=O)c2c1 (2.5 µM)
0: all assays above

COCCOc1cnc2ccn([C@H](C)c3nnc4c(F)cc(-c5cnn(C)c5)cn34)c(=O)c2c1 (10 µM)
0: all assays above

Nc1ccc(-c2nc3ccc(-c4nc5ccc(N)cc5[nH]4)cc3[nH]2)cc1 (10 µM)
1: [17]
0: all other assays above

CN(C)C(=O)c1cc2cnc(Nc3ccc(N4CCN(CCCCNC(=O)COc5cccc6c5C(=O)N(C5CCC(=O)NC5=O)C6=O)CC4)cn3)nc2n1C1CCCC1 (centres undefined) (10 µM)
0: all assays above

NC(=O)c1ccccc1Nc1ccnc(Nc2cccc(O)c2)n1 (10 µM)
4: [7] | [9]
3: [1] | [2] | [6]
0: all other assays above

O=C(CCl)c1c[nH]c2ccccc12 (2.5 µM)
0: all assays above

CCNC(=O)Nc1ccc(-c2nc3c(c(N4CCOC[C@@H]4C)n2)CCN(C2COC2)C3)cc1 (2.5 µM)
0: all assays above

CC(=O)Nc1nc(C)c(-c2cc(C)c3c(c2)CN([C@@H](C)C2CC2)C3=O)s1 (10 µM)
0: all assays above

CN(C)CCOc1cc(-c2cn[nH]c2)ccc1NC(=O)C1COc2ccccc2O1 (centres undefined) (10 µM)
not listed: [20]
0: all other assays above

COc1cc(Nc2ccnc3ccc(Br)cc23)cc(OC)c1OC (2.5 µM)
1: [7] | [12] | [15] | [19]
0: all other assays above

COCCNc1cc(NC(=O)N2CCCc3cc(CN4CCOCC4=O)c(C=O)nc32)ncc1C#N (10 µM)
0: all assays above

CCc1c(C(=O)NNC(=O)[C@H](O)c2cc(F)cc(F)c2)ccc(O)c1C (10 µM)
0: all assays above

O=C(Nc1ccnc(NC(=O)C2CC2)c1)c1c(Cl)cccc1Cl (10 µM)
3: [1] | [11]
2: [2]
1: [6] | [7]
0: all other assays above

N#Cc1cc(N2CCC(C(=O)N3N=CC[C@H]3c3cc(F)cc(F)c3)CC2)ncn1 (10 µM)
0: all assays above

CNC(=O)CN1CCC(Oc2cc3c(Nc4cccc(Cl)c4F)ncnc3cc2OC)CC1 [Sapitinib] (10 µM)
0: all assays above

Cc1cccc(-c2nn3c(c2-c2ccnc4ccc(C(N)=O)cc24)CCC3)n1 [Galunisertib] (10 µM)
0: all assays above

CC1(C)C=Cc2c(ccc(C(=O)/C=C/c3ccc(O)cc3)c2O)O1 [4-Hydroxylonchocarpin] (10 µM)
0: all assays above

CN1C(=O)[C@@H](NC(=O)c2cc(Cc3ccccc3)on2)COc2ccccc21 (10 µM)
0: all assays above

O=c1cc(N2CCOCC2)oc2c(-c3cccc4c3sc3ccccc34)cccc12 (10 µM)
0: all assays above

C[C@H](Nc1cc2c(-c3ccc4c(c3)OCO4)noc2cn1)c1ccccc1 (10 µM)
0: all assays above

CO[C@]1(C(=O)N[C@@H](C)c2ccc(-n3cc(F)cn3)nc2)CC[C@H](c2nc(C)cc(Nc3cc(C)[nH]n3)n2)CC1 [Pralsetinib] (10 µM)
0: all assays above

COc1cc(N2CCC(O)CC2)ccc1Nc1nc(Nc2ccccc2S(=O)(=O)C(C)C)c2[nH]cnc2n1 (10 µM)
0: all assays above

Nc1ccc(-c2cccc(C(=O)Nc3cnc4nc(N5CCOCC5)oc4c3)n2)cn1 (10 µM)
1: [3]
0: all other assays above

CNc1cc2c(Nc3cccc(Br)c3)ncnc2cn1 (10 µM)
2: [20]
0: all other assays above
